Measured values: paper PMC5389796

How the values were obtained:
Assay in all cases: co-IP; HEK293 cells co-transfected 48 hrs; RIPA lysate; anti-FLAG M2 with protein A/G magnetic beads overnight at 4°C; eluted with FLAG peptide; blot with anti-V5
[1] = target: T1, TALK-1 T3 Δ259-294-FLAG (human) (UniProt Q96T55)
T1 sequence: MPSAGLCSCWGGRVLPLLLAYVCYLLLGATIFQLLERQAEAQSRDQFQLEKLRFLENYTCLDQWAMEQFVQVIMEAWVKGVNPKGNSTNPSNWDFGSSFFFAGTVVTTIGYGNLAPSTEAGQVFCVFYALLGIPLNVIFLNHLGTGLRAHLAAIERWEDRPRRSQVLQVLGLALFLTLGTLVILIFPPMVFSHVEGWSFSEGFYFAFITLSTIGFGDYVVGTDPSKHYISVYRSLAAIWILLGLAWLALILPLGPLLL

[2] = target: T2, TALK-1 T3 A277E (rs1535500)-FLAG (human) (UniProt Q96T55)
T2 sequence: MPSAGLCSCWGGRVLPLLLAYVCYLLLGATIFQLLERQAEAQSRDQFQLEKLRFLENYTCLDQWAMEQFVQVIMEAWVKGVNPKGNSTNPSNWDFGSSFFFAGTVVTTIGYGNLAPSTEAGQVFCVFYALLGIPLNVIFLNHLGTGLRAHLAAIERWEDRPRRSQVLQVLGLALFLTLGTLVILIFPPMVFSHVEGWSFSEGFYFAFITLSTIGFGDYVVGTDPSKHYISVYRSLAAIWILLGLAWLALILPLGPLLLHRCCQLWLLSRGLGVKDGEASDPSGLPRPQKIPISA

[3] = target: T3, TALK-1 transcript variant 2 (T2)-FLAG (human) (UniProt Q96T55)
T3 sequence: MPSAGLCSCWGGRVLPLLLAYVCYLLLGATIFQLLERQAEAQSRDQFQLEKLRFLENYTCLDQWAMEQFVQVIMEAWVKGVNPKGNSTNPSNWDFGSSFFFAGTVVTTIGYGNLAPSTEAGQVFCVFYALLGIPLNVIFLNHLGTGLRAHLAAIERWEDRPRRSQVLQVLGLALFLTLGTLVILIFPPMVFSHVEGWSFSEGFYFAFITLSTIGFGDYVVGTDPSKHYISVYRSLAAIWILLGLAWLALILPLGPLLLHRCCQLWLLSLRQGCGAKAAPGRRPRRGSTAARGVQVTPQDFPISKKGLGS

TALK-1 T3-FLAG (human) = target: T4, TALK-1 T3-FLAG (human) (UniProt Q96T55)
T4 sequence: T2 sequence with E277A

- binding [1]: binds
- binding [2]: binds
- binding [3]: binds
- binding (TALK-1 T3-FLAG (human)): binds
Substance: iOPN-V5 (human)

Changes are numbered by the printed parent chain. No constants are given. Whether binding was seen depends on the method and setting. Binding seen in cells or lysates may run through a third protein. A result given as binding can be weak or reduced; the word gives no strength. Sequences can lack the tags named with a protein.
